Reference: article PMC8517475
These are yes or no findings as the source states them, for the method shown. In cells and extracts the contact can be indirect. Some binding calls cover weakened binding; strength is not graded here.

Target: T1, Receptor-interacting serine/threonine-protein kinase 1 (mouse (endogenous in mouse hearts)), Q60855
T1 chain: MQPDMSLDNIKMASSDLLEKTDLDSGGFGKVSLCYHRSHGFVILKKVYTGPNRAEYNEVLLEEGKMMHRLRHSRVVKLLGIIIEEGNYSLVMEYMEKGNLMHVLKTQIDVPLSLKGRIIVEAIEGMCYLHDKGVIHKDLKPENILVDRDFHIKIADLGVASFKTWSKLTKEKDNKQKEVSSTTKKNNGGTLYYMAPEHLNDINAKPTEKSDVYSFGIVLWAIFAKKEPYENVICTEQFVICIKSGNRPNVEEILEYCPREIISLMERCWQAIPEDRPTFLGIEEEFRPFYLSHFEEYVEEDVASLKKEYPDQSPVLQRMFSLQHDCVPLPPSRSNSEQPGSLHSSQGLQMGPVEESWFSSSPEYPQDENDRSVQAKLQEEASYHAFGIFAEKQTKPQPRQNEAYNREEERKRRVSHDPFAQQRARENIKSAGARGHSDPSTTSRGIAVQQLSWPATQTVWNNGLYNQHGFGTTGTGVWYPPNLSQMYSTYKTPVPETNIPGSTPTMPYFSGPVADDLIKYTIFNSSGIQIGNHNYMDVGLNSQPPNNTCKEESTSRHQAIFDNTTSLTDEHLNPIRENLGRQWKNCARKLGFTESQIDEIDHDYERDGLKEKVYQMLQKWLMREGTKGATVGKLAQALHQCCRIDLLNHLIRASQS
Test: co-IP; anti-RIP1 antibody (IgG as control), protein A/G agarose, blot for RIP3; mouse hearts: sham or I/R in wild-type and ALDH2-Tg mice (Supplementary Figures 2E,F), and Langendorff-perfused hearts with vehicle or 60 uM 4-HNE for 1 h (Figures 3H,I)
Conditions: remark: other sources report otherwise

binding: binds
B1: Receptor-interacting serine/threonine-protein kinase 3, Q9QZL0 1-486 (protein)
chain: MSSVKLWPTGASAVPLVSREELKKLEFVGKGGFGVVFRAHHRTWNHDVAVKIVNSKKISWEVKAMVNLRNENVLLLLGVTEDLQWDFVSGQALVTRFMENGSLAGLLQPECPRPWPLLCRLLQEVVLGMCYLHSLNPPLLHRDLKPSNILLDPELHAKLADFGLSTFQGGSQSGSGSGSGSRDSGGTLAYLDPELLFDVNLKASKASDVYSFGILVWAVLAGREAELVDKTSLIRETVCDRQSRPPLTELPPGSPETPGLEKLKELMIHCWGSQSENRPSFQDCEPKTNEVYNLVKDKVDAAVSEVKHYLSQHRSSGRNLSAREPSQRGTEMDCPRETMVSKMLDRLHLEEPSGPVPGKCPERQAQDTSVGPATPARTSSDPVAGTPQIPHTLPFRGTTPGPVFTETPGPHPQRNQGDGRHGTPWYPWTPPNPMTGPPALVFNNCSEVQIGNYNSLVAPPRTTASSSAKYDQAQFGRGRGWQPFHK
